According to PMC10216903, “Implication of the Transmembrane Domain in the Interleukin 10 Receptor Platform Oligomerisation” (Cells, 2023):
Results are given in words; binding and its absence hold for the method and conditions named. Binding seen in cells or lysates may run through a third protein.

Experiments:
[1] = molecular target: T1, IL-10Rβ, full-length subunit of the interleukin 10 receptor (UniProt Q61190); assay: FRET or BRET; BRET saturation assay in living HEK293 cells; full-length Rluc donor (plasmid constant, 0.75 ng/mL) with increasing full-length eYFP acceptor plasmid; HBSS, coelenterazine H 5 µM, 37 °C
T1 sequence: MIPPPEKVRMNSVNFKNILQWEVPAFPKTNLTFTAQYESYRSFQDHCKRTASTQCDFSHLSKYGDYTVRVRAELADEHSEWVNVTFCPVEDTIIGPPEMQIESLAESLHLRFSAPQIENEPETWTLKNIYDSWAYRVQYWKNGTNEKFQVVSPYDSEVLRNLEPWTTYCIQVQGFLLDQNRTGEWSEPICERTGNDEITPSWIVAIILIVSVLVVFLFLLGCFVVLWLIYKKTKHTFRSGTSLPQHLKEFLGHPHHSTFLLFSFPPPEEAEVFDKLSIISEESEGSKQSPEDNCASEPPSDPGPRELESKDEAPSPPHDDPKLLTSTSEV

[2] = molecular target: T2, IL-10Rα, full-length subunit of the interleukin 10 receptor (UniProt Q61727); assay: as above
T2 sequence: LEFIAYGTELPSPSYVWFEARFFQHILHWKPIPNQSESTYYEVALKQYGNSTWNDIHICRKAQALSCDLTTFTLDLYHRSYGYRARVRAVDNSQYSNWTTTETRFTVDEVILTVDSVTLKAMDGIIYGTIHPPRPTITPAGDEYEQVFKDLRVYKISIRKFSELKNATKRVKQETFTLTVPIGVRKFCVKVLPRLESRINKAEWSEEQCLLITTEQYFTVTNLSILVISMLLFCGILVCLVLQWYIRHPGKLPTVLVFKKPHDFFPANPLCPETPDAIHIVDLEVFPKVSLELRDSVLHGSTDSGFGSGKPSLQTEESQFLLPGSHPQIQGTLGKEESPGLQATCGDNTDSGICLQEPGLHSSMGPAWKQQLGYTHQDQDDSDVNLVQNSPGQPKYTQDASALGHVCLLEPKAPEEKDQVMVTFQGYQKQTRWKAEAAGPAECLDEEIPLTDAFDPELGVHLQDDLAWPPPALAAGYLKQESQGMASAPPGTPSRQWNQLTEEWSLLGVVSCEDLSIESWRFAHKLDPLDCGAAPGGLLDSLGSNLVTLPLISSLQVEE

| Substance | binding [1] | binding [2] |
| --- | --- | --- |
| GABAB (receptor) | no binding | no binding |
| PDGFRα (receptor) | no binding | no binding |
